Reference: paper PMC7819943, “Rice protein-binding microarrays: a tool to detect cis-acting elements near promoter regions in rice”
Some of the results follow.

molecular target: T1, OsSMF1 (Oryza sativa, UniProt Q6ZLB0 1-436); experiment: protein-binding microarray (RPBM); PBS, 2% BSA, 51.3 ng/ul salmon testes DNA, 50 uM zinc acetate, 200 nM TF, 25 C, 1 h; high values mean tight binding; details: protein: recombinant; tags: N-terminal polyhistidine and DsRed monomer fusion (pET32a); chain copies: 2; label: CyDye5-dUTP incorporated in the synthesized complementary strand; 3' TTTTT single-stranded linker to array surface; dsDNA, one strand shown
T1 sequence: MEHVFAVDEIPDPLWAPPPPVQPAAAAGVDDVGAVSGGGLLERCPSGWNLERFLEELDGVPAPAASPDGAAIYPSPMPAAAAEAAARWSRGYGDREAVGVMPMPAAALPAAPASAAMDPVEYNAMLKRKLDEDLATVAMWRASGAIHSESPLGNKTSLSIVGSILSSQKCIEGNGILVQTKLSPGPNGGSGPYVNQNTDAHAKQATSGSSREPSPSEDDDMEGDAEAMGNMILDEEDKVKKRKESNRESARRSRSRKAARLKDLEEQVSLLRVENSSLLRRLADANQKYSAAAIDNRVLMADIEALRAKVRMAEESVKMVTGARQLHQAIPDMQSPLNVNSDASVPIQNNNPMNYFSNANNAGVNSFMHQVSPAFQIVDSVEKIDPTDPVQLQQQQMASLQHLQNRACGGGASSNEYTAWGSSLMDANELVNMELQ
In short: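 Using Ni–NTA, transcription factors fused N-terminally to polyhistidine and DsRed were purified after expression in E. coli BL21-CodonPlus. These were incubated at 200 nM with a blocked, double-stranded custom Agilent array for 1 h at 25 °C in a buffer containing 50 µM zinc acetate, and the array was washed. The binding signal is per-feature fluorescence intensity (arbitrary units) on an Axon 4000B scanner.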

Row | Sequence | binding signal
1 | TTTCTTTCGCGAACGTGTAAAAGGATTGCATGGCATCCCACGGAGTCACCTAGTGCAG | 4080 fluorescence intensity (a.u.)
2 | AATAATCTTGTAATACATATGCATATTATTATGTTCTCACCGGAGTCACCTAGTGCAG | 3640 fluorescence intensity (a.u.)
3 | CCAAAGCTGCGCAGCACCCTGAACGGCACCACACCACGGACGGAGTCACCTAGTGCAG | 57400 fluorescence intensity (a.u.)
4 | CCAAACACCTCCTTGCTGTCTCACCACAATGCCACTTTACCGGAGTCACCTAGTGCAG | 22100 fluorescence intensity (a.u.)
5 | CGCCGTACCGGAGCACGGTGGCTGTCCACGTGGCACCCCGCGGAGTCACCTAGTGCAG | 21700 fluorescence intensity (a.u.)
6 | CCATTTCTGATAGTTTTCATCCCTAACGGCATCCACGTGGCGGAGTCACCTAGTGCAG | 12900 fluorescence intensity (a.u.)
7 | TAGCTAGTTTAACTCGTACGATGAATCACGCCGAAACACACGGAGTCACCTAGTGCAG | 4070 fluorescence intensity (a.u.)
8 | CTCGGAATACGACGGCCCACTCGGCCCAGTACGGGCCCATCGGAGTCACCTAGTGCAG | 3480 fluorescence intensity (a.u.)
9 | CAGTGTTCTCCATCAGTAGCAGTATCAGACAACACTTCTTCGGAGTCACCTAGTGCAG | 3300 fluorescence intensity (a.u.)
10 | AATCCTAGTCAGCCGTGGGGCCCACGAGAACGATGGCCACCGGAGTCACCTAGTGCAG | 5390 fluorescence intensity (a.u.)
11 | TCCAGCTACTGTTGCAACTGTTCTTCTCACAGTCACAGGCCGGAGTCACCTAGTGCAG | 3760 fluorescence intensity (a.u.)
12 | ACTTGCTGACCCCTCGTCCTCGTCATCGTCCGCCCTATGTCGGAGTCACCTAGTGCAG | 16200 fluorescence intensity (a.u.)
13 | CGCGCCACCGGCTCACGCTGCAGGACTTCGCCGCGGTGTACGGAGTCACCTAGTGCAG | 3180 fluorescence intensity (a.u.)
14 | CGGGAAGGCCAGTCCTCCGTCAGCATCCTCTCTTCCGTTGCGGAGTCACCTAGTGCAG | 7730 fluorescence intensity (a.u.)
15 | TCTCCGCCAACCATCCCGCCACGTCAACCACCTTTCCATCCGGAGTCACCTAGTGCAG | 32900 fluorescence intensity (a.u.)
16 | GATGAAGGTGATCGGGTCCACATCATAGGTTCAAAACTTGCGGAGTCACCTAGTGCAG | 4930 fluorescence intensity (a.u.)
17 | TTTATTTATTACAAACCCAAAATAACTTGTAACGTGGAACCGGAGTCACCTAGTGCAG | 3500 fluorescence intensity (a.u.)
18 | GATGCACGGTATGTCATCCGGTGACTTGCCATAGCAATGTCGGAGTCACCTAGTGCAG | 4800 fluorescence intensity (a.u.)
19 | TGTAATGTTATATCTTCTCTGGCACGTCGGAAAATCCTTGCGGAGTCACCTAGTGCAG | 4890 fluorescence intensity (a.u.)
20 | CGTGTGTGTTTCTTGGGGCTGAGCTGTTTGCTCTCCTGGTCGGAGTCACCTAGTGCAG | 3230 fluorescence intensity (a.u.)
21 | TCTCTTCTTTTATTTCCTTGACGTGTGTTATAGCTCTTCTCGGAGTCACCTAGTGCAG | 3650 fluorescence intensity (a.u.)

Laid out differently: entries from further up
Row	Sequence	binding signal
7	TAGCTAGTTTAACTCGTACGATGAATCACGCCGAAACACACGGAGTCACCTAGTGCAG	4070 fluorescence intensity (a.u.)
13	CGCGCCACCGGCTCACGCTGCAGGACTTCGCCGCGGTGTACGGAGTCACCTAGTGCAG	3180 fluorescence intensity (a.u.)

(cont.)

Row | Sequence | binding signal
22 | GGATGCTCCTTCTGTGTGTCTTCTGCTGGTCTTGGTGATCCGGAGTCACCTAGTGCAG | 9610 fluorescence intensity (a.u.)
23 | GCCGCGCTGTGTGTCGCGCCACGCCCGCGTGGGCCCGCCGCGGAGTCACCTAGTGCAG | 5130 fluorescence intensity (a.u.)
24 | CATGGTCGCCAACACCCTCCACGCCTGCGCCGTCCTCCTCCGGAGTCACCTAGTGCAG | 3520 fluorescence intensity (a.u.)
25 | GATGAACTTTGCCACCTTCTCTAGGTATGACATATGTACGCGGAGTCACCTAGTGCAG | 3610 fluorescence intensity (a.u.)
26 | TTGATATGACCAGTGCTGATGTAGAGTCAGACATGACCTCCGGAGTCACCTAGTGCAG | 4320 fluorescence intensity (a.u.)
27 | GAGCAGCTTGCCGATGCGCACCTCGTTCCACGGGTCCCTGCGGAGTCACCTAGTGCAG | 3340 fluorescence intensity (a.u.)
28 | ATACGAATCACATTGAGTCATAGTTGAGAGAATCGAAATGCGGAGTCACCTAGTGCAG | 3270 fluorescence intensity (a.u.)
29 | GGTTTCGCTGCTTGGTCATCACTGCTCCGTCGTCGGCTTGCGGAGTCACCTAGTGCAG | 7260 fluorescence intensity (a.u.)
30 | CGGGCTCCGATCGATCTCCATGATTAACCATCCGGCGTGGCGGAGTCACCTAGTGCAG | 3540 fluorescence intensity (a.u.)
31 | CGCACGACAACTCTAGGTCAGCCACGAATCGTTTCACCTCCGGAGTCACCTAGTGCAG | 3930 fluorescence intensity (a.u.)
32 | TTGATTTCCAACAATTTTGTAAGTAGTCACTGATCACCCACGGAGTCACCTAGTGCAG | 3880 fluorescence intensity (a.u.)
33 | GCCGTATATAACGACCGCCTCCTCACCCCGGCCTCTCGCCCGGAGTCACCTAGTGCAG | 3320 fluorescence intensity (a.u.)
34 | GAATACTGGTTTGACTTACTCTTGTTTCGTCGTCACGCGCCGGAGTCACCTAGTGCAG | 3950 fluorescence intensity (a.u.)
35 | CCTGGAGGAAAGAAAGAAAGAAAGATGATAAGGCGGCTGGCGGAGTCACCTAGTGCAG | 20700 fluorescence intensity (a.u.)
36 | AGCGGAGGGGTCGGGAGGCAGTGCGGTGGCTGGTCAGCGACGGAGTCACCTAGTGCAG | 3470 fluorescence intensity (a.u.)
37 | GTGTCTCTTCTATACGTGGCGAGCTTAGGTAGCTAGTGTACGGAGTCACCTAGTGCAG | 6150 fluorescence intensity (a.u.)
38 | AACTAGGTCTGTCAGCCAACAATCACAGGAATCATTGCTACGGAGTCACCTAGTGCAG | 3550 fluorescence intensity (a.u.)
39 | GACTTGATTACCACGCGTATACTATATAGGACAAAATTGCCGGAGTCACCTAGTGCAG | 3190 fluorescence intensity (a.u.)
40 | TATGATTCGTGTCGGGACACGTCTCCACGTCAAGAGCGGGCGGAGTCACCTAGTGCAG | 9730 fluorescence intensity (a.u.)
41 | ACGTTTCGCCCCGCATGCCCTCTATATAGAGCGGTTGAGCCGGAGTCACCTAGTGCAG | 14400 fluorescence intensity (a.u.)
42 | TTGCTTGCCACGTGCAAGATCATAGCAGATGGAGACAAAACGGAGTCACCTAGTGCAG | 3920 fluorescence intensity (a.u.)
